Results as given in the supplement of paper PMC11732987, “Enantioselective OTUD7B fragment discovery through chemoproteomics screening and high-throughput optimisation” (Communications Chemistry, 2025).
The other results are listed elsewhere or left out. The data scatter; read single values as rough.

Sequences of proteins named here, by UniProt entry; tags and fusion partners are left off. A change or cut given only in a name is not applied to a line headed by its entry. Residues count along the entry.
UniProt Q9NVA2: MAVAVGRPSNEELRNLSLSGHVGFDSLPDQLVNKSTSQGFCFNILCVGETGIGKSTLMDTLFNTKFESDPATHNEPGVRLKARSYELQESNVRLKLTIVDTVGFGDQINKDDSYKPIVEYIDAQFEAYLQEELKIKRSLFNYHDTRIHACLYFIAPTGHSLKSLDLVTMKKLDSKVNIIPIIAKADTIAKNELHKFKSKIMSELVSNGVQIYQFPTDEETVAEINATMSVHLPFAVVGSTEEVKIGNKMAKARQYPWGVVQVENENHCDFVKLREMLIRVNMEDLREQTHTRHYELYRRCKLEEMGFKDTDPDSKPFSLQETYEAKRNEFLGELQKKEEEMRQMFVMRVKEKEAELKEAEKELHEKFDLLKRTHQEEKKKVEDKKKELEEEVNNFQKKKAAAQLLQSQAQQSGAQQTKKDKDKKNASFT
UniProt Q99590, 449-469: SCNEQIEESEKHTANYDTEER
UniProt Q149N8: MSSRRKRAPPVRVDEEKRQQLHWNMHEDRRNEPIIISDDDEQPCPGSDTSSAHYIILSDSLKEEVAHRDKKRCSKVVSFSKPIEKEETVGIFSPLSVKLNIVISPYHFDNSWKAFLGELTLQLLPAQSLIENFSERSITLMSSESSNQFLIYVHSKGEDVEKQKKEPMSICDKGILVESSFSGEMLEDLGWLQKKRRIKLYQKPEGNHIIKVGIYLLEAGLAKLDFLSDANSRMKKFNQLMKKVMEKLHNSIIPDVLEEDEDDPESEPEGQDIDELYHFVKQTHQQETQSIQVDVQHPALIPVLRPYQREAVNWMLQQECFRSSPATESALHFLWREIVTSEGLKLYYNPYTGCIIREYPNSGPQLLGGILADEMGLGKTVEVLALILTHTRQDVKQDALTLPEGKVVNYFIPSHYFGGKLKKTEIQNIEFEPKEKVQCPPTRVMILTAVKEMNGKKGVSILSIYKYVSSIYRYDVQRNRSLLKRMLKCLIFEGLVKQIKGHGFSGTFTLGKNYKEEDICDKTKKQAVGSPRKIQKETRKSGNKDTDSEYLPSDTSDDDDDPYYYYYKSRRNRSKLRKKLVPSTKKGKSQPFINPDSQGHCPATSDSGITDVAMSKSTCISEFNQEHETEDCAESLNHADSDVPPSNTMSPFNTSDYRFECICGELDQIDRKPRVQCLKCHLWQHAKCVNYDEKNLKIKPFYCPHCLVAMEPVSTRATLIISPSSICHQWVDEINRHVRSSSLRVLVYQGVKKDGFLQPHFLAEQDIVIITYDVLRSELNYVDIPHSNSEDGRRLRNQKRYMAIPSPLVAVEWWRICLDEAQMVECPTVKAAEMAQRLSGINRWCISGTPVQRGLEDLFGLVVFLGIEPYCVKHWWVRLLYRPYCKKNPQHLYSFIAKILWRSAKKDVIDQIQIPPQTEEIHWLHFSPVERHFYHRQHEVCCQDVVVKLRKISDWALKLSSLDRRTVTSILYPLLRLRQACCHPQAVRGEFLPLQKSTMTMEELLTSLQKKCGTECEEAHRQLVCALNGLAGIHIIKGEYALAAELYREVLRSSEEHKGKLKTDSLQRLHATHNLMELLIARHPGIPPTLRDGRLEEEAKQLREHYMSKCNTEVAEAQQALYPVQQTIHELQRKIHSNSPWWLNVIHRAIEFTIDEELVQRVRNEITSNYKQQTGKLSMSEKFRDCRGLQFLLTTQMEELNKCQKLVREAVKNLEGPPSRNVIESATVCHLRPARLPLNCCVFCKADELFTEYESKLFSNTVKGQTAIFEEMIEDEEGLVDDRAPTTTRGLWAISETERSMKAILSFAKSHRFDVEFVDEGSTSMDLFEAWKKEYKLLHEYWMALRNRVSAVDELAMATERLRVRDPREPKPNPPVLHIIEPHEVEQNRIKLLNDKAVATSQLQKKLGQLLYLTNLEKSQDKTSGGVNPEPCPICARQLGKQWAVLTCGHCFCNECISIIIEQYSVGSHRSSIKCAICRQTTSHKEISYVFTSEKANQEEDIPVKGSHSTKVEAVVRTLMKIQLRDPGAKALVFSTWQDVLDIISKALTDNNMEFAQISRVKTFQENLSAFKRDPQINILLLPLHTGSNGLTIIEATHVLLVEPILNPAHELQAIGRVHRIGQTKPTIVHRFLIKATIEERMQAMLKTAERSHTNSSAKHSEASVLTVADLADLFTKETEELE
UniProt Q96T21: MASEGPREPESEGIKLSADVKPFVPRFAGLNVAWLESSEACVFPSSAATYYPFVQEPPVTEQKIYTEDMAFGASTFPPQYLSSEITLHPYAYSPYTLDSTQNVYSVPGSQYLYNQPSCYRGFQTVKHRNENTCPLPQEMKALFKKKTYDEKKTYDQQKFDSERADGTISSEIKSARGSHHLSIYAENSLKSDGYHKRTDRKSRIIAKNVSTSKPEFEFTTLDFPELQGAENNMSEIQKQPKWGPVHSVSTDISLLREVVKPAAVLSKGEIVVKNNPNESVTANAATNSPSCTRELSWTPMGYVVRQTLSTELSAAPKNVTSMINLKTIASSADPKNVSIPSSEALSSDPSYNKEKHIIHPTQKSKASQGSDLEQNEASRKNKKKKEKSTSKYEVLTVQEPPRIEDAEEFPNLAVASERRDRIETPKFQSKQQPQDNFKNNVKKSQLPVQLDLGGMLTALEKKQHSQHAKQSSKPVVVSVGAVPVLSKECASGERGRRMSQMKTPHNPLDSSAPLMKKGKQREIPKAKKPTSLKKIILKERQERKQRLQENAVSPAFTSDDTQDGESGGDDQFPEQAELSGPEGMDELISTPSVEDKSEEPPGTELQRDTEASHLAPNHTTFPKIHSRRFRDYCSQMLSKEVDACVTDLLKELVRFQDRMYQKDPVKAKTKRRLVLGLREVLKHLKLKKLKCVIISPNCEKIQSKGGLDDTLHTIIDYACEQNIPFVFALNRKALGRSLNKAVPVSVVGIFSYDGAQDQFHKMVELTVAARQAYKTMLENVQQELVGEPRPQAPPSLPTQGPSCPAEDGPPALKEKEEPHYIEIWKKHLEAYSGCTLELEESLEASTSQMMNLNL
UniProt Q16181: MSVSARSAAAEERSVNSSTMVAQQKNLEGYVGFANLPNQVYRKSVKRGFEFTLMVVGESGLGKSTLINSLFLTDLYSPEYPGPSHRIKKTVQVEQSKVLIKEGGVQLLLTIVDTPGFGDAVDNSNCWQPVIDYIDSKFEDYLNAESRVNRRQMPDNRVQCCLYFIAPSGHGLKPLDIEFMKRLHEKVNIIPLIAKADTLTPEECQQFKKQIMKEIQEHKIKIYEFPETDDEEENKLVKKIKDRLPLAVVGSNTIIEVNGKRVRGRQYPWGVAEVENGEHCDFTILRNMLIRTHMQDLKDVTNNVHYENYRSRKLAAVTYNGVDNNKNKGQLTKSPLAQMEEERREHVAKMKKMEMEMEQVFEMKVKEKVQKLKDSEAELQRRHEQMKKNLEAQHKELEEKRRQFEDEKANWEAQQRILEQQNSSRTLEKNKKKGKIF
UniProt O94885: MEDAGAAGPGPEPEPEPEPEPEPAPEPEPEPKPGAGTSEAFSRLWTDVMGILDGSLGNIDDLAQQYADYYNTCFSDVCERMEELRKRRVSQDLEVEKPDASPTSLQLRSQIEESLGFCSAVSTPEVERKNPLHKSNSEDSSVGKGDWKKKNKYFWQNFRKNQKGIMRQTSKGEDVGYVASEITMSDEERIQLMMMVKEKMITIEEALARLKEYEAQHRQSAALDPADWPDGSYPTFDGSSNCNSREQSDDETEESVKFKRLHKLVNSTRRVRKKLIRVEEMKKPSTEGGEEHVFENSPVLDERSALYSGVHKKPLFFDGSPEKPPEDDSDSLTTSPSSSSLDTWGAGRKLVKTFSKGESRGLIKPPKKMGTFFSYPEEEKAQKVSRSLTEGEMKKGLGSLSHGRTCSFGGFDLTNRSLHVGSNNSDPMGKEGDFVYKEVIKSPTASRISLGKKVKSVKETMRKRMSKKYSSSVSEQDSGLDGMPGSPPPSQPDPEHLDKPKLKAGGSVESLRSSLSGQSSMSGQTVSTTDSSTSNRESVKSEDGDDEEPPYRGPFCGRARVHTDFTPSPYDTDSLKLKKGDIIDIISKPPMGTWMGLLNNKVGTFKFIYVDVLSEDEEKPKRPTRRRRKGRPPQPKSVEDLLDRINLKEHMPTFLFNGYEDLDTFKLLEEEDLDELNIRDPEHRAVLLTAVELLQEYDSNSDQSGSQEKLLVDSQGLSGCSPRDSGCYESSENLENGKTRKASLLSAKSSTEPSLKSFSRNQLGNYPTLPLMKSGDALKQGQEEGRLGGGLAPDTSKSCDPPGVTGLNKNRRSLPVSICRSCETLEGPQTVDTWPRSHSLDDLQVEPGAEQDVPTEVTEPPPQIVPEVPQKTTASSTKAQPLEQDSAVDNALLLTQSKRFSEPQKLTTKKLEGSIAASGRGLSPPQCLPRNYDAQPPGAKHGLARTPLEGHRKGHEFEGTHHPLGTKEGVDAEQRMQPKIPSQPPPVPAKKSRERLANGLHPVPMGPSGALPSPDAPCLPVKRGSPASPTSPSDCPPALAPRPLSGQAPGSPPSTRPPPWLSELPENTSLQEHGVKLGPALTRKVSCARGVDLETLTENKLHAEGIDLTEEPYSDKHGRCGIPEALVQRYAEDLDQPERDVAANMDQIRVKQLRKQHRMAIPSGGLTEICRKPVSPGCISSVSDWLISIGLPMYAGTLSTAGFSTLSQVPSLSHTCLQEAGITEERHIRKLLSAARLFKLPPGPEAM
UniProt Q14141: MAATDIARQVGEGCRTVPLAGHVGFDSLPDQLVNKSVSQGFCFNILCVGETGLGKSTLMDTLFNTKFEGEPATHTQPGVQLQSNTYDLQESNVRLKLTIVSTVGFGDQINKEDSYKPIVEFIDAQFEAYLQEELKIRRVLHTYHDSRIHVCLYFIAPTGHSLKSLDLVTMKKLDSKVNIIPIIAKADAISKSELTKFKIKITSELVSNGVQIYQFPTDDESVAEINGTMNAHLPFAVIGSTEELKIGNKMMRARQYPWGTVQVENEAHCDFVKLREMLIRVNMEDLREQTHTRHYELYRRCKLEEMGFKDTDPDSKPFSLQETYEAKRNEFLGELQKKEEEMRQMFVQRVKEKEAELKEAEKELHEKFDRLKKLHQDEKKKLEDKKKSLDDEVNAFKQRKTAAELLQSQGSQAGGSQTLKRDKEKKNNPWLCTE
UniProt A1X283: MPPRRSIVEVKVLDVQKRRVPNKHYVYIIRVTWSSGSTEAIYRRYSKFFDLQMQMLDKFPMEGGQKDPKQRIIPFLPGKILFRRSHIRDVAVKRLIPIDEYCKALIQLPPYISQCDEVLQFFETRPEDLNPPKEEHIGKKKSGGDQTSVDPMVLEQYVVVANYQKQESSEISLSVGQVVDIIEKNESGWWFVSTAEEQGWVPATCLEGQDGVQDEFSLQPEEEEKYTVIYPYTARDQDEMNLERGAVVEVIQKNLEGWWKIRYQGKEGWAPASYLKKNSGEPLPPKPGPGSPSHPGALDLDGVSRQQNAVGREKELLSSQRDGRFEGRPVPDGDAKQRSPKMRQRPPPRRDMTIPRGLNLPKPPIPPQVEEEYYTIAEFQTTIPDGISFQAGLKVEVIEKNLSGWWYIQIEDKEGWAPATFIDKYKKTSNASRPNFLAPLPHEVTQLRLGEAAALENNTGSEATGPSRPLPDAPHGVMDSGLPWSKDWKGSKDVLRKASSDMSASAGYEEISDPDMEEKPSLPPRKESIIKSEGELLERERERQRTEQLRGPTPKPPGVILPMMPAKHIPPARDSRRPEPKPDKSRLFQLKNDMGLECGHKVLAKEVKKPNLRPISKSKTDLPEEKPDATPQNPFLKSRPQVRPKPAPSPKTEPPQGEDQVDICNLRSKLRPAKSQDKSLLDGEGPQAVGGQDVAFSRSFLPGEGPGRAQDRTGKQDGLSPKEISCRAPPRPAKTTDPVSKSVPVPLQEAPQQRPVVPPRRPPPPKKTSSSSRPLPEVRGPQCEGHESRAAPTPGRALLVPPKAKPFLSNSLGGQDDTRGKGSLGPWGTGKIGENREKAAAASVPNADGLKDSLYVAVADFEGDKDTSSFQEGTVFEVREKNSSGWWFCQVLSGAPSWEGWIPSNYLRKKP

Columns and labels:
[1] = compound: ClCC(=O)N[C@@H]1CCCc2ccccc12; assay: log2 mean competition ratio of IA-DTB cysteine labelling (DMSO/compound) (log2 ratio); higher = stronger cysteine engagement by compound; details: treatment time: 4 h, cell line lysate: HEK293T
Procedure: (§1)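 IA-DTB competitive cysteine chemoproteomics in HEK293T RIPA lysate. Lysates were treated with compound 29 or 30 at 50 or 200 µM for 4 h, then IA-DTB (500 µM, 1 h), trypsin-digested, NeutrAvidin-enriched and analysed by diaPASEF. Competition ratio = intensity DMSO / intensity compound (n=4 treated, n=64 DMSO); binding: mean log2 CR ≥ 1 and p ≤ 0.05 plus QC filters. Target is the cysteine site.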

[2] = compound: ClCC(=O)N[C@H]1CCCc2ccccc12; assay: as above; details: treatment time: 4 h, cell line lysate: HEK293T
Procedure: as §1

| Target | log2 mean competition ratio ([1]; 50 µM) | log2 mean competition ratio ([1]; 200 µM) | log2 mean competition ratio ([2]; 50 µM) | log2 mean competition ratio ([2]; 200 µM) |
| --- | --- | --- | --- | --- |
| SEPTIN11 C300 (UniProt Q9NVA2) | -0.335 | -0.191 | -0.236 | -0.113 |
| SCAF11 C450 (UniProt Q99590) | 0.0938 | -0.0294 | -0.0385 | -0.0817 |
| SHPRH C439 (UniProt Q149N8) | -0.023 | -0.465 | 0.407 | -0.021 |
| SECISBP2 C489 (UniProt Q96T21) | 0.0659 | 0.148 | -0.118 | 0.187 |
| SEPTIN7 C204 (UniProt Q16181) | -0.108 | -0.49 | 0.283 | -0.384 |
| SASH1 C799 (UniProt O94885) |  | 0.286 |  | 0.487 |
| SEPTIN6 C14 (UniProt Q14141) | -0.0809 | 0.384 | -0.0763 | 0.271 |
| SH3PXD2B C598 (UniProt A1X283) | 0.375 | 0.00509 | 0.0674 | -0.0596 |
| SDCCAG8 C236 | -0.269 | 0.0749 | -0.39 | 0.176 |
